The target of the assay is μ-opioid receptor (Homo sapiens (Human), UniProt P35372). Briefly: μ-opioid receptor [35S]GTPγS functional assay, HEK-293 or CHO cells. The assay is classed as biochemical. Here is the method: [^35S]GTPγS functional assays were conducted using freshly thawed μ-receptor membranes prepared in-house from a cell line expressing recombinant opioid receptor in a HEK-293, CHO or U-2 OS cell background, or purchased from a commercial source (Perkin Elmer, Shelton, Conn.; or DiscovRx, Fremont, Calif.). Assay reactions were prepared by sequentially adding the following reagents to binding buffer (100 mM NaCl, 10 mM MgCl2, 20 mM HEPES, pH 7.4) on ice (final concentrations indicated): membrane protein (0.026 mg/mL), saponin ([…]), GDP ([…]) and [^35S]GTPγS (0.20 nM; Perkin Elmer, Shelton, Conn.). The prepared membrane solution (190 μl/well) was transferred to 96-shallow well polypropylene plates containing 10 μl of 20× concentrated stock solutions of the agonist [D-Ala^2, N-methyl-Phe^4 Gly-ol^5]-enkephalin (DAMGO) prepared in dimethyl sulfoxide (DMSO). Plates were incubated for 30 min at about 25° C. with shaking. […] BetaScint scintillation cocktail (Perkin Elmer, Shelton, Conn.) was added (50 μl/well) and plates were counted using a Packard Top-Count for 1 min/well. Data were analyzed using the sigmoidal dose-response curve fitting functions in GraphPad PRISM v. […]
In TABLE 4, activity response of certain Compounds of the Invention to the μ- and κ-opioid receptors was determined as described above for functional assays using HEK-293 or CHO cells.

Protein sequences, listed by entry. Tags and fused reporters are not part of them.
UniProt P35372, whole entry: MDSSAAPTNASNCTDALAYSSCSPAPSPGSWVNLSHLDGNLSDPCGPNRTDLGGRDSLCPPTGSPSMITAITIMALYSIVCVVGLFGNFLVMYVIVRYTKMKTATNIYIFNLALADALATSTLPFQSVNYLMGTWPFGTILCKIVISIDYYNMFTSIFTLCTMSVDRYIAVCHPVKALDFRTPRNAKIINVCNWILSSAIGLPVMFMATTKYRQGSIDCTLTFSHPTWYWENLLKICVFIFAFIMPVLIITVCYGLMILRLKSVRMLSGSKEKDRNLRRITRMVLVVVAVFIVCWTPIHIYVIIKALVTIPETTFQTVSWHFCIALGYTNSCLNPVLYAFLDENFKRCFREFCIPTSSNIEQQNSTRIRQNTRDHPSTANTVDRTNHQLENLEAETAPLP

The values that follow come from US9975854B2, “Benzomorphan analogs and use thereof” (Purdue Pharma L.P., priority 2014, dated 2018).

In general, EC50 refers to the concentration at which the effect is half-maximal.

Structures were worked out from names or drawings and are uncertain.

For the compound `CC(C)S(=O)(=O)N1CCC(CN[C@H]2[C@H]3Cc4ccc(O)cc4[C@]2(C)CCN3C)CC1`, the EC50 (read-out: GTPγS μ EC50) was 854 nM. The “GTPγS μ Emax” value (relative to DAMGO) is listed as 34.9 ± 1.2%.
